Taken from: PubChem BioAssay AID1159578 (Peter MacCallum Cancer Centre, 2015)
In all, the deposit lists about 18,000 reagents; shown is a random part of them. About 1,030 of them (5.7%) were called active. 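Inactive calls also include pools with fewer than 3300 nuclei, whose migration was not assessed.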 Raw values vary from plate to plate and are shown uncorrected.

Purpose: 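siRNA pools altering how lymphatic endothelial cells close a scratch wound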 (primary screen)
Cells: human lymphatic endothelial cells
Reagents: siRNA pool against human genes, 40 nM
Time to read-out: 48 h after transfection
Measured: 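High-content imaging of dye-stained cells in a scratch assay measures filled wound area and nuclei per well; duplicate means given as ratio to mock and robust z-score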
Scale: migration robust z-score: higher = faster migration into the scratch; migration relative to mock: higher = more scratch area covered than mock; nuclei per well: higher = more cells in the well
Active means: 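Pools averaging fewer than 3300 nuclei are never called; remaining pools count as changed when migration robust z lies outside -2 to 2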
Meaning of the calls: active = migration changed; inactive = no migration change, or too few cells

no.	gene	migration robust z-score	migration class with cell-count check	migration relative to mock	nuclei per well, duplicate mean	call
1	PCBP2	0.23	migration z between -2 and 2; enough cells	0.85	5917	inactive
2	DOCK6	-0.54	migration z between -2 and 2; enough cells	0.74	5492	inactive
3	ZBTB11	-1.42	migration z between -2 and 2; enough cells	0.52	4952	inactive
4	NR3C1	-1.55	migration z between -2 and 2; enough cells	0.5	5786	inactive
5	FGR	-1.82	migration z between -2 and 2; enough cells	0.45	3552	inactive
6	RAP2A	0.2	migration z between -2 and 2; enough cells	0.84	5880	inactive
7	CCN4	-0.06	migration z between -2 and 2; enough cells	0.87	6152	inactive
8	UQCC3	-1.29	migration z between -2 and 2; enough cells	0.55	5778	inactive
9	MRO	0.57	migration z between -2 and 2; enough cells	1.03	5978	inactive
10	GCNT3	-1.06	migration z between -2 and 2; enough cells	0.6	5068	inactive
11	PWWP2B	0.44	migration z between -2 and 2; enough cells	1	4826	inactive
12	DMTF1	-0.99	migration z between -2 and 2; enough cells	0.62	6760	inactive
13	ARFGAP1	-0.34	migration z between -2 and 2; enough cells	0.74	4654	inactive
14	AHSG	-0.65	migration z between -2 and 2; enough cells	0.72	5668	inactive
15	RPL18	0.2	migration z between -2 and 2; enough cells	0.94	4957	inactive
16	TPM2	-0.15	migration z between -2 and 2; enough cells	0.85	3938	inactive
17	IL1RAPL2	0.52	migration z between -2 and 2; enough cells	0.9	5994	inactive

Reformatted: entries from further up.
gene	migration robust z-score	migration class with cell-count check	migration relative to mock	nuclei per well, duplicate mean	call
DMTF1	-0.99	migration z between -2 and 2; enough cells	0.62	6760	inactive
ARFGAP1	-0.34	migration z between -2 and 2; enough cells	0.74	4654	inactive
AHSG	-0.65	migration z between -2 and 2; enough cells	0.72	5668	inactive
RPL18	0.2	migration z between -2 and 2; enough cells	0.94	4957	inactive
TPM2	-0.15	migration z between -2 and 2; enough cells	0.85	3938	inactive
IL1RAPL2	0.52	migration z between -2 and 2; enough cells	0.9	5994	inactive

The list goes on:
no.	gene	migration robust z-score	migration class with cell-count check	migration relative to mock	nuclei per well, duplicate mean	call
18	LHX2	-0.38	migration z between -2 and 2; enough cells	0.79	5700	inactive
19	EDAR	-0.78	migration z between -2 and 2; enough cells	0.68	6940	inactive
20	OR5AP2	-0.05	migration z between -2 and 2; enough cells	0.88	5183	inactive
21	KMT2D	-1.64	under 3300 nuclei; migration not judged	0.49	3289	inactive
22	HS6ST1	-1.02	migration z between -2 and 2; enough cells	0.61	5479	inactive
23	TAAR1	1.48	migration z between -2 and 2; enough cells	1.09	6120	inactive
24	HGS	0.34	migration z between -2 and 2; enough cells	0.98	5800	inactive
25	NAA38	-1.31	migration z between -2 and 2; enough cells	0.54	3666	inactive
26	FAM199X	0.34	migration z between -2 and 2; enough cells	0.98	5795	inactive
27	CCL1	0.06	migration z between -2 and 2; enough cells	0.9	5874	inactive
28	UMOD	1.94	migration z between -2 and 2; enough cells	1.4	5472	inactive
29	DEDD2	0.12	migration z between -2 and 2; enough cells	0.92	6069	inactive
30	NCKIPSD	-1.45	migration z between -2 and 2; enough cells	0.51	5259	inactive
31	PRSS58	-0.5	migration z between -2 and 2; enough cells	0.71	5986	inactive
32	MRPL42	-0.56	migration z between -2 and 2; enough cells	0.74	5462	inactive
33	OPHN1	-1.19	migration z between -2 and 2; enough cells	0.57	5418	inactive
34	SPATA33	-1.69	migration z between -2 and 2; enough cells	0.44	4162	inactive
35	COXFA4L2	-0.26	migration z between -2 and 2; enough cells	0.76	6366	inactive
36	TRIM65	0.57	migration z between -2 and 2; enough cells	0.92	6856	inactive
37	ZNF839	0.68	migration z between -2 and 2; enough cells	1.06	5988	inactive
38	COL12A1	0.04	migration z between -2 and 2; enough cells	0.9	7388	inactive
39	H2AC14	0.09	migration z between -2 and 2; enough cells	0.91	5831	inactive
